Data as given in PubChem BioAssay AID1259254 (NCATS, 2017).
Aim: 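Genome-wide screen for genes that prevent DNA re-replication in cancer cells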 (primary screen). Cells: human HCT116 colorectal cancer cells. Reagents: single siRNA against human genes. Timing: 3 days. Detection: 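Nuclei stained with Hoechst and imaged; cell-cycle phase assigned by DNA content; G2 share scaled per plate, non-targeting siRNA 0%, GMNN siRNA 100%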. Direction: G2 robust z-score: higher = more G2 cells, more excess DNA replication. Rule for the call: 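Active siRNAs have a G2 robust z of 5 or more median absolute deviations over the median, which in these data means about 38% or higher of GMNN control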.
The deposit covers about 59,000 reagents; this is an unselected part. Over the whole deposit, about 1,550 (2.6%) got an active call. 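G2 share is only a proxy for re-replication; each gene was hit by three separate siRNAs, and active genes were retested.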 Further read-outs or replicates are left out here. Reagent sequences are not shown. Not stated in the record: the amount of reagent.

{"gene": "ANXA6 (annexin A6)", "PubChem SID": "SID160717875", "G2 robust z-score": -0.578, "activity call": "inactive"}
{"gene": "ANXA6 (annexin A6)", "PubChem SID": "SID160717885", "G2 robust z-score": 1.87, "activity call": "inactive"}
{"gene": "ANXA6 (annexin A6)", "PubChem SID": "SID160717896", "G2 robust z-score": 2.09, "activity call": "inactive"}
{"gene": "DUS2 (dihydrouridine synthase 2)", "PubChem SID": "SID160742496", "G2 robust z-score": -0.153, "activity call": "inactive"}
{"gene": "DUS2 (dihydrouridine synthase 2)", "PubChem SID": "SID160742497", "G2 robust z-score": -0.0142, "activity call": "inactive"}
{"gene": "DUS2 (dihydrouridine synthase 2)", "PubChem SID": "SID160742498", "G2 robust z-score": 0.995, "activity call": "inactive"}
{"gene": "NPS (neuropeptide S)", "PubChem SID": "SID160768362", "G2 robust z-score": -0.915, "activity call": "inactive"}
{"gene": "NPS (neuropeptide S)", "PubChem SID": "SID160768363", "G2 robust z-score": -0.481, "activity call": "inactive"}
{"gene": "NPS (neuropeptide S)", "PubChem SID": "SID160768365", "G2 robust z-score": -0.511, "activity call": "inactive"}
{"gene": "RPL7P46 (ribosomal protein L7 pseudogene 46)", "PubChem SID": "SID160768614", "G2 robust z-score": -0.14, "activity call": "inactive"}
{"gene": "RPL7P46 (ribosomal protein L7 pseudogene 46)", "PubChem SID": "SID160768615", "G2 robust z-score": 0.444, "activity call": "inactive"}
{"gene": "RPL7P46 (ribosomal protein L7 pseudogene 46)", "PubChem SID": "SID160768616", "G2 robust z-score": 2.37, "activity call": "inactive"}
{"gene": "LPGAT1 (lysophosphatidylglycerol acyltransferase 1)", "PubChem SID": "SID160723459", "G2 robust z-score": -0.609, "activity call": "inactive"}
{"gene": "LPGAT1 (lysophosphatidylglycerol acyltransferase 1)", "PubChem SID": "SID160723460", "G2 robust z-score": 0.804, "activity call": "inactive"}
{"gene": "LPGAT1 (lysophosphatidylglycerol acyltransferase 1)", "PubChem SID": "SID160723461", "G2 robust z-score": 2.44, "activity call": "inactive"}
{"gene": "CCDC196 (coiled-coil domain containing 196)", "PubChem SID": "SID160767727", "G2 robust z-score": 2.03, "activity call": "inactive"}
{"gene": "CCDC196 (coiled-coil domain containing 196)", "PubChem SID": "SID160767728", "G2 robust z-score": 0.598, "activity call": "inactive"}
{"gene": "CCDC196 (coiled-coil domain containing 196)", "PubChem SID": "SID160767729", "G2 robust z-score": 1.58, "activity call": "inactive"}
{"gene": "VWA8 (von Willebrand factor A domain containing 8)", "PubChem SID": "SID160735396", "G2 robust z-score": -0.432, "activity call": "inactive"}
{"gene": "VWA8 (von Willebrand factor A domain containing 8)", "PubChem SID": "SID160735397", "G2 robust z-score": -0.183, "activity call": "inactive"}
{"gene": "VWA8 (von Willebrand factor A domain containing 8)", "PubChem SID": "SID160735398", "G2 robust z-score": 0.177, "activity call": "inactive"}
{"gene": "ZBED8 (zinc finger BED-type containing 8)", "PubChem SID": "SID160747273", "G2 robust z-score": 0.591, "activity call": "inactive"}
{"gene": "ZBED8 (zinc finger BED-type containing 8)", "PubChem SID": "SID160747274", "G2 robust z-score": -0.862, "activity call": "inactive"}
{"gene": "ZBED8 (zinc finger BED-type containing 8)", "PubChem SID": "SID160747275", "G2 robust z-score": -1.09, "activity call": "inactive"}

Individual results from the entries so far:
Result for VWA8 (von Willebrand factor A domain containing 8) [SID160735396] in “G2 robust z-score”: -0.432
Under “activity call”, LPGAT1 (lysophosphatidylglycerol acyltransferase 1) [SID160723459] is entered as inactive
Value of NPS (neuropeptide S) [SID160768365] under “G2 robust z-score”: -0.511
